Data as given in PubChem BioAssay AID743121 (NCATS, 2013).
Here is one part, drawn at random, of about 26,000 reagents. 167 of them (0.63%) were called active. 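Calls are per gene from RSA p-values that are not deposited; an individual active-marked siRNA can sensitise only weakly.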 Reagents against one gene are numbered here. No sequences are given here.

Aim: 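Knock-downs that sensitise breast cancer cells to camptothecin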 (primary screen)
Cells: MDA-MB-231 cells, a human breast cancer line
Reagent: single siRNA against human genes, 20 nM siRNA (0.8 pmol per well)
Timing: 120 h (drug added 48 h after transfection, read 72 h later)
Treatment: camptothecin 20 nM (about EC30) for 72 h; vehicle 0.1% DMSO in parallel plates
Measurement: 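CellTiter-Glo ATP signal, scaled to control siRNA as percent viability; sensitisation given as log2 of untreated divided by camptothecin-treated viability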
Direction: log2 vehicle/camptothecin viability: higher = stronger sensitisation to camptothecin; viability with camptothecin and viability without drug: higher = more viable cells
Rule for the call: 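Each gene scored by redundant siRNA activity (RSA) over its individual siRNA ratios; a gene is called active at p < 0.001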

log2 vehicle/camptothecin viability	viability with camptothecin (% of control)	viability without drug (% of control)	Outcome	gene	siRNA no.
-0.363	43.1	33.6	inactive	SLC9A9	1
0.197	65.1	74.6	inactive	SLC9A9	2
0.0728	51.1	53.7	inactive	SLC9A9	3
-0.133	101	92.4	inactive	SLC9A9	4
0.367	68.3	88.1	inactive	CYP2C9	1
0.152	84.5	93.9	inactive	CYP2C9	2
0.0829	68.6	72.7	inactive	CYP2C9	3
0.215	71.1	82.5	inactive	IPO4	1
-0.926	59.3	31.2	inactive	IPO4	2
-0.161	55.6	49.7	inactive	IPO4	3
0.211	52	60.2	inactive	IPO4	4
0.296	24.8	30.4	inactive	HSD11B2	1
0.257	44.6	53.3	inactive	HSD11B2	2
-0.333	87	69.1	inactive	HSD11B2	3
0.195	24.4	27.9	inactive	APOA5	1
-0.441	62.2	45.9	inactive	APOA5	2
-0.445	82	60.2	inactive	APOA5	3
-0.203	67.3	58.4	inactive	MMS19	1
-0.256	73	61.2	inactive	MMS19	2
-0.267	107	88.6	inactive	MMS19	3
0.134	83.2	91.4	inactive	MMS19	4
0.0938	37.9	40.4	inactive	CACNG1	1
-0.128	86	78.7	inactive	CACNG1	2
-0.283	89	73.1	inactive	CACNG1	3
0.159	71.3	79.6	inactive	CACNG1	4
0.074	26.2	27.6	inactive	TBCE	1
-0.162	83.8	74.9	inactive	TBCE	2
-0.0831	68.9	65	inactive	TBCE	3
0.0283	96.1	98	inactive	C6	1
-0.404	87.1	65.8	inactive	C6	2
0.341	76.8	97.3	inactive	C6	3
0.326	40.9	51.3	inactive	C6	4
-0.315	91.3	73.4	inactive	CAMK1G	1
1.5	6.79	19.2	inactive	CAMK1G	2
-0.355	90.9	71.1	inactive	CAMK1G	3
-0.605	72.5	47.7	inactive	CAMK1G	4
-0.111	95.9	88.8	inactive	FBLN7	1
-0.564	83.9	56.7	inactive	FBLN7	2
-0.333	88.3	70.1	inactive	FBLN7	3
0.221	85.3	99.4	inactive	FBLN7	4
0.853	9.47	17.1	inactive	USP11	1
0.154	38.5	42.9	inactive	USP11	2
-0.168	86	76.5	inactive	USP11	3
-0.305	90.3	73.1	inactive	RBM4	1
-0.406	89.4	67.4	inactive	RBM4	2
0.00605	83.8	84.1	inactive	RBM4	3
-0.327	63.2	50.4	inactive	RBM4	4

A stretch taken from the entries so far, for reference:
log2 vehicle/camptothecin viability	viability with camptothecin (% of control)	viability without drug (% of control)	Outcome	gene	siRNA no.
-0.168	86	76.5	inactive	USP11	3
-0.305	90.3	73.1	inactive	RBM4	1
